The record followed here is paper PMC4507757.

Results are given in words; binding and its absence hold for the method and conditions named. Binding calls can cover weak binding; strength is not graded here. For some of these results: In cells and extracts the contact can be indirect.

The target in assay [1] is T1, starch branching enzyme I (BEI) (rice, Oryza sativa L. japonica cv. Nipponbare (endogenous in developing endosperm)) (UniProt Q01401).
T1 sequence: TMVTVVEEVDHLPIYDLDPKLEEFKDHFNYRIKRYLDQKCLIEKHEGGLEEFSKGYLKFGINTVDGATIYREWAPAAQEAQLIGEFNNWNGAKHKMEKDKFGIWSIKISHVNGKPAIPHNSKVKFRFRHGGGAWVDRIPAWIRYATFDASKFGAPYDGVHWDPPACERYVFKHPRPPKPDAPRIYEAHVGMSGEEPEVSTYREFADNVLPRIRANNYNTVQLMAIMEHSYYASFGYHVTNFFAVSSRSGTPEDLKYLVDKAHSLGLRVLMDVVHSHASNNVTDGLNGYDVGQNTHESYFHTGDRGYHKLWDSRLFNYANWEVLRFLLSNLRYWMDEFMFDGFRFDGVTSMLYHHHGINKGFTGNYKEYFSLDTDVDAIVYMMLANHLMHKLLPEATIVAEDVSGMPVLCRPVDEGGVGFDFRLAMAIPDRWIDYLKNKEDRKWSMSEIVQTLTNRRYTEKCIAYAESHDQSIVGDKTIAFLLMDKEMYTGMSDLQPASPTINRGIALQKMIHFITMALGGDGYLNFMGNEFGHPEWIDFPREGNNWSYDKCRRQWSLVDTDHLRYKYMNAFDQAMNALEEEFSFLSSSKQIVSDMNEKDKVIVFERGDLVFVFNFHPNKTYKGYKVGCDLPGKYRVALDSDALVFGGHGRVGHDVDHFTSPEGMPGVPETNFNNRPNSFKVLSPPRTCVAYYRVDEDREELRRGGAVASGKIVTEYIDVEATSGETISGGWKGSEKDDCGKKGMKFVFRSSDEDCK
As to the kind of experiment: co-IP; soluble extract of developing rice endosperm mixed with isozyme-specific antibodies (pre-immune serum as control) 1.5 h at 4 °C, protein A-Sepharose 1 h at 4 °C; 10 mM HEPES-KOH pH 7.5, 100 mM NaCl, 1 mM DTT; eight washes; bound proteins analysed by western blotting. A general note: A western blot detects proteins with antibodies after separation by electrophoresis.

The target in assay [2] is T2, starch synthase I (SSI) (rice, Oryza sativa L. japonica cv. Nipponbare (endogenous in developing endosperm)) (UniProt Q0DEC8).
T2 sequence: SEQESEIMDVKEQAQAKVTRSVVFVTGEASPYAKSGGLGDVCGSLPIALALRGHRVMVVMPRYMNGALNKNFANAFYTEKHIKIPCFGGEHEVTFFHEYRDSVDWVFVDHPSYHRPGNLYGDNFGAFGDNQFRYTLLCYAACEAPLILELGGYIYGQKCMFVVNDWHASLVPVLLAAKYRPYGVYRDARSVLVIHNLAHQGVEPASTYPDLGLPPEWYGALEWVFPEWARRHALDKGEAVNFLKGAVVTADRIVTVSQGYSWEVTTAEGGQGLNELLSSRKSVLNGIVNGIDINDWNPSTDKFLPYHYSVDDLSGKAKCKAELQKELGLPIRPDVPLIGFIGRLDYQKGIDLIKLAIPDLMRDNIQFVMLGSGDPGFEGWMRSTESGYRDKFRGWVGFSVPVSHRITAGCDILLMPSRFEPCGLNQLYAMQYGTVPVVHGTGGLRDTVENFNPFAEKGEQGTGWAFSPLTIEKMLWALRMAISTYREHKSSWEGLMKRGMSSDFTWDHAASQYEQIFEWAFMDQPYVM
The description is as above.

Assay [3] has as its target T3, starch synthase IIa (SSIIa) (rice, Oryza sativa L. japonica cv. Nipponbare (endogenous in developing endosperm)) (UniProt Q0DDE3).
T3 sequence: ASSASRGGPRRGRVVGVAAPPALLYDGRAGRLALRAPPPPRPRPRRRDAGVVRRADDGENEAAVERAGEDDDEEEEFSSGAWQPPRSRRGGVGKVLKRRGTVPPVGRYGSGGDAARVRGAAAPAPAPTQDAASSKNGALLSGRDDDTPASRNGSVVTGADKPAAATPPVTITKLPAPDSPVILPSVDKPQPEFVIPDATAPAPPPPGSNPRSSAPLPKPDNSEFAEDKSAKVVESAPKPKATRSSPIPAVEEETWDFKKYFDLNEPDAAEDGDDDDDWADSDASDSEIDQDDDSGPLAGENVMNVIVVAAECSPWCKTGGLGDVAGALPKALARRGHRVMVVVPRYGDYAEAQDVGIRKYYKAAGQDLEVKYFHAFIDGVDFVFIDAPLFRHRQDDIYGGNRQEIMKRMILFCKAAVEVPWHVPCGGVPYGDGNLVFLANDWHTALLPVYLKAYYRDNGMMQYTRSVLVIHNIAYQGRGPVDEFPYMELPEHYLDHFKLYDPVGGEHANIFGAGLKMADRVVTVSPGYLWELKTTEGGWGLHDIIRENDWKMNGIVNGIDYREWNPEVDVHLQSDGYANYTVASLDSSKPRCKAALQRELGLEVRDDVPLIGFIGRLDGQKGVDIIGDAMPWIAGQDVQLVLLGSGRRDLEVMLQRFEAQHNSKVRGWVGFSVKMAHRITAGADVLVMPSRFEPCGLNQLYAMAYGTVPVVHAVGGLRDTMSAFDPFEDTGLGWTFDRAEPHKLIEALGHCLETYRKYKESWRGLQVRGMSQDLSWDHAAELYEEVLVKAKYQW
The description is as above.

The target of assay [4] is starch branching enzyme IIa (BEIIa) (rice, Oryza sativa L. japonica cv. Nipponbare (endogenous in developing endosperm)). The assay is described as above.
The target of assay [5] is pullulanase (PUL) (rice, Oryza sativa L. japonica cv. Nipponbare (endogenous in developing endosperm)). The description is as above.
In assay [6] the target is starch branching enzyme IIb (BEIIb) (rice, Oryza sativa L. japonica cv. Nipponbare (endogenous in developing endosperm)). The assay is described as above.
For assay [7] the target is unchanged. Nature of the assay: native gel or EMSA; blue native PAGE (3-12% acrylamide BIS-TRIS) of developing rice endosperm extract; western blotting of lane slices from a single gel. In general terms: A gel shift assay detects complexes by their altered migration in electrophoresis.
Assay [8] shares this target. As to the kind of experiment: SEC; gel permeation chromatography of soluble developing rice endosperm extract on Superdex 200 10/300 at 4 °C; 10 mM HEPES-KOH pH 7.5, 100 mM NaCl; fractions analysed by western blotting and native-PAGE zymograms. Background: SEC sorts molecules by how far they enter the pores of the column.

Regarding pullulanase (PUL) (enzyme), the binding result in assay [1] is on record as “binds”.

starch branching enzyme IIb (BEIIb): the binding result in assay [2], in assay [1] and in assay [3] was “binds” each time.

B1: starch branching enzyme I (BEI) (enzyme, UniProt Q01401 65-820)
chain: T1 sequence
Regarding B1, the figures for the binding result in assay [4], in assay [5] and in assay [6] were “binds weakly”, “binds” and “binds”, respectively.

B2: starch synthase I (SSI) (enzyme, UniProt Q0DEC8 114-641)
chain: T2 sequence
With B2, the binding result in assay [7] was “binds”; in assay [8], “binds”; in assay [4] it was “binds weakly”; in assay [6], “binds”.

B3: starch synthase IIa (SSIIa) (enzyme, UniProt Q0DDE3 17-810)
chain: T3 sequence
Regarding B3, the binding result in assay [4] is on record as “binds weakly”; in assay [6], “binds”.
